Assay [1] has as its target T1, Flag-PKMYT1 (human) (UniProt Q99640).
T1 sequence: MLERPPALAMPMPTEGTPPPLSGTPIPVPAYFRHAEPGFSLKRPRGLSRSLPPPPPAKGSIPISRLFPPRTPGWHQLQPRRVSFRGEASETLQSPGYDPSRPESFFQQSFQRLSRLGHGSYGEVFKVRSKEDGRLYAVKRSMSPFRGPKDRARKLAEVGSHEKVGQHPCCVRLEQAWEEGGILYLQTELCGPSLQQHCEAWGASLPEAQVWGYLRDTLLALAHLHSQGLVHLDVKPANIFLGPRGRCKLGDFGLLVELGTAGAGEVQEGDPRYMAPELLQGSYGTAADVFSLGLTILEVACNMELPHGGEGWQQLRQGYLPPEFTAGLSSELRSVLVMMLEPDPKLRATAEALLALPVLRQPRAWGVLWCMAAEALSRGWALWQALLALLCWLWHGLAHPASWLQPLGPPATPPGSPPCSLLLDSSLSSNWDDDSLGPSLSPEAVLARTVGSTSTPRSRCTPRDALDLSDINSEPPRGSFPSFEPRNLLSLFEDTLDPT
Kind of assay: co-IP; HEK293T cells transfected for 24 h, treated with Mei (10 µM) or DMSO for 3 h; lysate on DYKDDDDK-Nanoab-Agarose (anti-Flag) at 4 °C for 3 h, washed 5 times with PBS, immunoblot. (In general: Immunoblotting shows a protein as a band on a membrane.)

The chains behind the UniProt entries cited, without tags or fusion partners.
UniProt Q14258: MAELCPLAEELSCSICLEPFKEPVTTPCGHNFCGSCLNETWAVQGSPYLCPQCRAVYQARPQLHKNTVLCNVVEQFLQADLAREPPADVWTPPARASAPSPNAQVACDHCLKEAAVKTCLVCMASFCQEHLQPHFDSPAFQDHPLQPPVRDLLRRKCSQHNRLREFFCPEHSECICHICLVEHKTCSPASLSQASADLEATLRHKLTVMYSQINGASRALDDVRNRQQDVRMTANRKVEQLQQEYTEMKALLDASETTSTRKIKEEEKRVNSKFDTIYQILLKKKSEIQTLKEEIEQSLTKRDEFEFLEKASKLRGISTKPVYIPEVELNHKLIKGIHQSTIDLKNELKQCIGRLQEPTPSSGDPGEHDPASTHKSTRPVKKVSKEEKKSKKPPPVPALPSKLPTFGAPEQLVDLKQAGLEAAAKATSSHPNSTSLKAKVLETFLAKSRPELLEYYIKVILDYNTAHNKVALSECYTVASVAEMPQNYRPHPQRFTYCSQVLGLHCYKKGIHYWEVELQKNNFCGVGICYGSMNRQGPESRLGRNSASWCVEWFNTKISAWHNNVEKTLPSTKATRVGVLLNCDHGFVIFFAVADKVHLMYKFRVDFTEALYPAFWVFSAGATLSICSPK

The target of assay [2] is T2, Flag-PKMYT1 (C301A) (human) (UniProt Q99640).
T2 sequence: T1 sequence with C301A
The description is as above.

The target in assay [3] is T3, recombinant PKMYT1 (75-362) C301A (human) (UniProt Q99640).
T3 sequence (chain, labelled with RED-NHS 2nd Generation dye for MST): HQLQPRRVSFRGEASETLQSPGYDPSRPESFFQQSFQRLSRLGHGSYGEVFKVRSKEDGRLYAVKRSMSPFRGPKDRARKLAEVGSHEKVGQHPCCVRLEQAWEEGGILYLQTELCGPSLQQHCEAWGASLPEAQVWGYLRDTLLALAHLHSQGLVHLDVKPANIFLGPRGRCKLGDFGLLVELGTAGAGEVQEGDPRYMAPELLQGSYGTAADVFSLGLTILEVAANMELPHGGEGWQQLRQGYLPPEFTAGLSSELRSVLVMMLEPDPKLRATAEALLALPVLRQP
In words: MST; labelled PKMYT1 (75-362) protein preincubated with Mei (50 µM) for 30 min, then 40 nM in assay buffer with 0.05% Tween-20; TRIM25 in 2-fold dilution series; Monolith NT.115; n = 3; both purified.

The target in assay [4] is T3, recombinant PKMYT1 (75-362) C301A (human). Kind of assay: MST; PKMYT1 (75-362) protein labelled with RED-NHS 2nd Generation, 40 nM, assay buffer with 0.05% Tween-20; TRIM25 in 2-fold dilution series; Monolith NT.115; without Mei; n = 3; both purified.

Substitutions are numbered along the chain they refer to. Results are given in words; binding and its absence hold for the method and conditions named. For some assays here: In cells and extracts the contact can be indirect. Some binding calls cover weakened binding; strength is not graded here. For some assays here: Where a sequence is shown, tags or fusion partners need not be part of it.

Turning to “Myc-TRIM25 (from UniProt Q14258 1-630) (enzyme)”, in assay [1], the binding entry is “binds”.

For “TRIM25 (in HEK293T cells overexpressing only Flag-PKMYT1) (from UniProt Q14258 1-630) (enzyme)”, the binding entry in assay [1] and in assay [2] was “binds” throughout. Take “TRIM25 protein (Origene, TP303757) (from UniProt Q14258 1-630) (enzyme)”: the binding result in assay [3] and in assay [4] was “binds” throughout.

For the origin of these results see PMC12140364, “Meisoindigo Acts as a Molecular Glue to Target PKMYT1 for Degradation in Chronic Myeloid Leukemia Therapy” (Advanced Science, 2025).
